The results in this text go back to PubChem BioAssay AID1487 (National Center for Advancing Translational Sciences (NCATS), 2009).

This test can be described thus: qHTS Assay for Modulators of Lamin A Splicing. Conditions: HeLa LMNA splicing GFP/RFP minigene ratio, 48 h. The gist of the method: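 S3 HeLa cells stably expressing lamin A-EGFP splicing minigene plus DsRed2, 600 cells/well, 48 h compound exposure at 37C. Laser-scanning cytometry; analysed as GFP (500-530 nm)/RFP (575-640 nm) total intensity ratio; 0.5% DMSO vehicle.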

[1] abbreviates: measured here: GFP splicing reporter channel.
Setting [2] is: measured here: RFP viability control channel.

“And” between values parts separate entries of the source, which are not always exact repeats. Equal entries are not always repeated. The list shows a part of the results. These are further read-outs of the screen, such as a control signal, another cell line or another target. No call is given for them. Most of these compounds were active or inconclusive in the main read-out, so they are no random draw. Potencies come from curve fits of mixed quality, noted in brackets.

In general, AC50 refers to the midpoint of the concentration-response curve, whichever way the signal moves.

In the case of `COCCN(CCOC)S(=O)(=O)c1ccc(C(=O)Nc2nc3c(s2)CCc2ccccc2-3)cc1`, the AC50 is, setting by setting: under setting [1], 10 µM [rising, partial curve, poor fit]; under setting [2], 7.08 µM [rising, full curve].
Turning to `Cc1ccc(CNC(=O)CCCCCNc2nc(=S)[nH]c3ccccc23)cc1`, the AC50 is 11.2 µM [falling, single point] under setting [1] and 31.6 µM [falling, single point] under setting [2].
`O=C(NC1CCS(=O)(=O)C1)c1cn(-c2ccccc2)nc1-c1ccccc1` (stereo unspecified): the AC50 under setting [2] was 11.2 µM [rising, partial curve].
As for `Cn1c(SCc2nc(-c3ccc(Br)cc3)no2)nnc1-c1ccco1`, the AC50 under setting [1] was 11.2 µM [rising, partial curve, poor fit] and the AC50 under setting [2] is 22.4 µM [rising, single point].
Regarding `C=CCNC(=O)c1onc(CSc2ccccc2CC)c1C(=O)O`, the AC50 under setting [1] is 3.98 µM [falling, single point].
`CC(C)c1onc(C(=O)Nc2sc3c(c2C#N)CCC3)c1[N+](=O)[O-]`: the half-maximal activity concentration (AC50) under setting [1] was 2.24 µM [falling, partial curve, poor fit].
With `CC(C)(C)[C@]1(O)CCN2CC3c4ccccc4CCc4cccc(c43)[C@@H]2C1` (stereo partly specified), the AC50 is 14.1 µM [falling, single point] under setting [1]; 5.62 µM [falling, partial curve, poor fit] and 22.4 µM [falling, single point] under setting [2].
For `Cc1cc(C)c(C2C3=C(Nc4c2c(C)nn4-c2ccccn2)c2ccccc2C3=O)c(C)c1` (stereo unspecified), the AC50 runs as follows: under setting [1], 14.1 µM [rising, single point]; under setting [2], 15.8 µM [rising, partial curve].
`Cc1ncc(CO)c(C=O)c1O`: the AC50 was 1.26 µM [falling, single point] under setting [1] and 31.6 µM [falling, single point] under setting [2].
`Nc1ncc(S(=O)(=O)Nc2ccc(F)cc2F)cn1`: the AC50 under setting [2] is 0.708 µM [falling, full curve, poor fit].
On to `Cc1ccc(Cn2c(NCCc3ccccc3)nc3c2c(=O)n(C)c(=O)n3C)cc1`, for which the AC50 under setting [2] is 10 µM [rising, partial curve].
Take `Cc1ccc(Cn2nnc3c(=O)[nH]c(C4CCN(S(=O)(=O)c5ccc(C)cc5)CC4)nc32)cc1`: the AC50 under setting [1] is 35.5 µM [rising, single point].
Turning to `COc1nccnc1NS(=O)(=O)c1ccc(NC(=S)NC(=O)/C=C/c2ccccc2)cc1`, the AC50 under setting [2] is 31.6 µM [rising, single point].
Regarding `CSc1ccc(Cl)c(C(=O)Nc2ccc(C)cn2)c1`, the AC50 is, setting by setting: under setting [1], 6.31 µM [falling, single point]; under setting [2], 6.31 µM [falling, single point].
